Results deposited as PubChem BioAssay AID602196 (INSERM, 2012)
Screen: 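Modifiers of cisplatin sensitivity in A549 cells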. Cell system: human A549 lung cancer cells. Reagent: siRNA pair against human genes. Timing: 48 h transfection before cisplatin; time from cisplatin to read-out not stated. Challenge: cisplatin at a dose killing half of control-siRNA cells; exact dose and duration not given. Read-out: 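Cisplatin cell death as a shift from the 50% death seen with control siRNA; siRNAs toxic or growth-blocking alone scored 0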. Direction: two-siRNA summed score (-2 to +2): higher = both siRNAs protect from cisplatin killing; -2 means both sensitise. Active means: 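siRNAs harmful alone (LDH or WST-1) get 0; others get +1 for less and -1 for more cisplatin killing; genes are active when the two siRNAs give the same sign, summing to ±2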. Calls: active = both siRNAs shift cisplatin killing the same way; inactive = no consistent shift, or siRNA harmful alone.
Shown is a random part of about 23,000 reagents. 455 of all reagents (2%) were called active. 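Active includes both protection and sensitisation; some change values fall well beyond the stated -50 to +50 range.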 A number with no mark means an inactive call. Further read-outs or replicates are left out here. No sequences are given here. Not stated in the record: the amount of reagent.

{"Target gene": "CCL24", "two-siRNA summed score (-2 to +2)": 0}
{"Target gene": "FAM78A", "two-siRNA summed score (-2 to +2)": 1}
{"Target gene": "LOC341720", "two-siRNA summed score (-2 to +2)": 0}
{"Target gene": "RMND1", "two-siRNA summed score (-2 to +2)": 0}
{"Target gene": "LIFR", "two-siRNA summed score (-2 to +2)": 0}
{"Target gene": "NKX2-8", "two-siRNA summed score (-2 to +2)": 0}
{"Target gene": "DDX52", "two-siRNA summed score (-2 to +2)": 0}
{"Target gene": "LOC400870 (retired record)", "two-siRNA summed score (-2 to +2)": 0}
{"Target gene": "LOC441925", "two-siRNA summed score (-2 to +2)": 0}
{"Target gene": "ZNF283", "two-siRNA summed score (-2 to +2)": 0}

Continued, starting with the last 2 of the part before.
{"Target gene": "LOC441925", "two-siRNA summed score (-2 to +2)": 0}
{"Target gene": "ZNF283", "two-siRNA summed score (-2 to +2)": 0}
{"Target gene": "LOC441518", "two-siRNA summed score (-2 to +2)": 1}
{"Target gene": "ARL3", "two-siRNA summed score (-2 to +2)": -1}
{"Target gene": "RFC1", "two-siRNA summed score (-2 to +2)": -1}
{"Target gene": "LOC389139", "two-siRNA summed score (-2 to +2)": 0}
{"Target gene": "TCF19", "two-siRNA summed score (-2 to +2)": 0}
{"Target gene": "PIGM", "two-siRNA summed score (-2 to +2)": 0}
{"Target gene": "ATP5MG", "two-siRNA summed score (-2 to +2)": 1}
{"Target gene": "ANGPTL8", "two-siRNA summed score (-2 to +2)": 0}
{"Target gene": "TFEB", "two-siRNA summed score (-2 to +2)": -1}
{"Target gene": "JPH3", "two-siRNA summed score (-2 to +2)": -1}
{"Target gene": "C3AR1", "two-siRNA summed score (-2 to +2)": 1}
